Measurements taken from patent US6451335B1, “Formulations and methods for providing prolonged local anesthesia” (Euro-Celtique S.A., priority 1998, dated 2002).
Where “and” joins values, the source holds several entries; their conditions need not be identical. Identical values can stand only once. Counter-ions that a name gives are not always drawn. For part of these data: At least one read-out could not be matched to a standard name with certainty. Some of these results come from one statement about several compounds together.

Columns and labels:
rat sciatic nerve = test: Duration of anesthesia of bupivacaine microspheres (LAB) with co-injected additives, hotplate foot withdrawal; type: in vivo; details: % Additive Conc. 0.05; LAB 150 mg/kg perineural
Experimental: In this example, a large number of pharmaceutical agents were tested for activity in augmenting the duration of local anesthetic activity. Bupivacaine-containing microspheres at about 75% loading, by weight, were injected perineurally into rat sciatic nerve at a dose of 150 mg/kg (weight microspheres/weight rat) to dose of approximately 50 mg/nerve. For the injections, needle placement adjacent to the target nerve was optimized by intermittent electrical e stimulation of the target nerve (via the injection needle) with low amplitude current to produce limb flexion. For the injections, the microspheres were suspended in a carrier vehicle suitable for injection. While any pharmaceutically acceptable carrier vehicle is acceptable, for these experiments the carrier vehicle was 1% sodium carboxymethylcellulose and 1% Tween 80 in water.
Compounds to be tested were co-injected with bupivacaine containing microspheres (i.e., mixed as additives into the carrier vehicle) in a range of concentrations. Results are expressed as percent increase in duration relative to non-augmented durations that were obtained in the same animal model.
The duration of anesthesia was measured by the hotplate foot withdrawal method described above in Example 10 and refers to the time necessary for the animal to recover from maximal nerve latency (12 sec) to a latency of 7 seconds, approximately 50% recovery. […]

superficial radial nerve = test: Local anesthesia to pin prick after injection around the superficial radial nerve in normal volunteers; type: in vivo, humans; details: n=6; EDLA 3 ml (37.5 mg total) or aqueous bupivacaine HCl 50 mg, single injection
Experimental: Finally, the two compartment release of bupivacaine from EDLA results in rapid onset and prolonged duration of local anesthesia in humans. Normal volunteers (n=6) received a single injection of 3 ml EDLA (37.5 mg total) or aqueous bupivacaine HCl (50 mg) around the superficial radial nerve. Onset of local anesthesia to pin prick over the anatomical snuff box was <3 hours with aqueous bupivacaine with duration of action 6-8 hours. Onset of local anesthesia with EDLA was <3 hours with duration of action 48-72 hours.

O=C1NC(=O)C(c2ccccc2)(c2ccccc2)N1 [5,5-diphenylhydantoin]
Duration Anesthesia As Percent of Control (rat sciatic nerve): 145% of Control and 119% of Control

CC(=O)O[C@H]1C(=O)[C@@]2(C)[C@H]([C@H](OC(=O)c3ccccc3)[C@]3(O)C[C@H](OC(=O)[C@H](O)[C@@H](NC(=O)c4ccccc4)c4ccccc4)C(C)=C1C3(C)C)[C@]1(OC(C)=O)CO[C@@H]1C[C@@H]2O [Taxol]
Duration Anesthesia As Percent of Control (rat sciatic nerve): 188% of Control and 138% of Control

CCCCN1CCCCC1C(=O)Nc1c(C)cccc1C (stereo not drawn) [bupivacaine HCl]
Onset of local anesthesia to pin prick (superficial radial nerve): < 3 h
